The text below walks through data of the supplement of paper PMC5949888.

Most values lie at the floor of the assay. Slopes are relative: functional sequences can read slightly below zero.

The data set concerns Saccharomyces cerevisiae PS128 hsf1 delta, HSF1(1-493) fusion. Put plainly: growth estimate (transactivation domain function in HSF1 fusion, heat-shock survival) (a.u. (slope of normalised read count over time)); higher = stronger growth at 37°C, i.e. more transactivation activity. To be noted: library: random library.
With FIKVAGGAVVGLSRRSAELH, the growth estimate was less than -0.25. The value for APTTDAGQRGVSLSVGSG was -0.246; that for RVIAKLRLDNP was less than -0.25. With QSSGA the figure was less than -0.25; with SGQRSGTESERRSASDWLAS, -0.246. The value for HRSISNATSNNVNRALLECV was less than -0.25; that for LEFGSSEPSSMKGSLTYNLD was less than -0.25; that for DTMYNGRRGVGLGVP was less than -0.25. Take EPVVQLPKELARPTKIAT: the growth estimate was -0.24. With GIVTIIRRRCLPKSGTTRVG the figure was less than -0.25; with HFVSC, less than -0.25. With ARHRLLRPERGPVTVT the figure was less than -0.25; with PSTRAGHG, less than -0.25.

On to YLNDIGNVDVRVWITYITGV, for which the growth estimate is less than -0.25.
